PubChem BioAssay AID504786 – Drosophila RNAi Screening Center – 2011
Screen: 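Positive regulators of HIF-driven reporter output in Drosophila cells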 (primary screen). Cells: Drosophila S2 cells with a stable HIF luciferase reporter. Knock-down reagent: long dsRNA against Drosophila genes, about 0.2 µg dsRNA per well of a 384-well plate. Time to read-out: three days of knock-down, then 20 h of DFO before reading. Challenge: desferrioxamine (DFO) at 100 µM, an iron chelator that mimics hypoxia, for 20 h. Detection: 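Firefly luciferase driven by the mouse ldh-a hypoxia-response element, measured after 20 h of 100 µM DFO; z-scores per plate, higher means more signal lost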. Reading the numbers: z-score: higher = stronger loss of HIF reporter signal.
The screen tested about 21,000 reagents; this is a random part of those with a known target gene and a result. 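Primary screen; positive scores mean lost reporter signal, so the sign may be inverted from the usual convention.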 Names joined by + are all predicted targets of the reagent. Not all columns of the deposit are shown.

Silencing of Tb (Tubby) [DRSC15815] came out at: z-score, replicate 1 = -0.3. AdipoR (Adiponectin receptor) [DRSC15767] showed z-score, replicate 1 = -0.3. Against Fib (Fibrillarin) [DRSC04614] the deposit lists z-score, replicate 1 = 1. Knock-down of CG9135 [DRSC03144] came out at: z-score, replicate 1 = -0.1. With knock-down of CG34266 [DRSC08323], the record shows z-score, replicate 1 = -0.5. With knock-down of boil (boilerman) [DRSC17872], the screen gave z-score, replicate 1 = -0.3.

After knock-down of snoRNA:Me28S-A982b + Uhg4 + snoRNA:Me28S-G3255a + 1 more [DRSC05143] the results were z-score, replicate 1 = 0. Coq5 (Coenzyme Q5) [DRSC19849] scored z-score, replicate 1 = -0.2. After knock-down of Smyd4-3 (SET and MYND domain containing, class 4, member 3) [DRSC07041], the record shows z-score, replicate 1 = -0.2. For Ctu2 (Cytosolic thiouridylase subunit 2) [DRSC02024], the values are z-score, replicate 1 = -0.3. For CG34243 (retired record) [DRSC09291] the deposit lists z-score, replicate 1 = 0.2. After knock-down of CG34243 (retired record) [DRSC09292], the record shows z-score, replicate 1 = 0.1.

After knock-down of CG6550 [DRSC07001], the record shows z-score, replicate 1 = 0.1. With knock-down of Cyp4e3 (Cytochrome P450 4e3) [DRSC03306] the results were z-score, replicate 1 = -0.3. After knock-down of CG5292 [DRSC15763], the screen gave z-score, replicate 1 = -0.4. After knock-down of Mocs1 (Molybdenum cofactor synthesis 1) [DRSC11225], the screen gave z-score, replicate 1 = -0.3. galla-2 [DRSC10936] gave z-score, replicate 1 = -0.3. CG8008 [DRSC07053] gave z-score, replicate 1 = -0.4.

With knock-down of CG9297 [DRSC16469], the screen gave z-score, replicate 1 = -0.4. Silencing of Pgk (Phosphoglycerate kinase) [DRSC00769] resulted in: z-score, replicate 1 = -0.4. Silencing of Aatf (Apoptosis antagonizing transcription factor) [DRSC02131] resulted in: z-score, replicate 1 = -0.3. For mRpS34 (mitochondrial ribosomal protein S34) [DRSC09918], the values are z-score, replicate 1 = 0.3. Depletion of CG17239 [DRSC00492] came out at: z-score, replicate 1 = -0.1. With knock-down of Tsp42Ed (Tetraspanin 42Ed) [DRSC05940], the record shows z-score, replicate 1 = -0.3.

PIG-L (Phosphatidylinositol glycan anchor biosynthesis class L) [DRSC15577] gave z-score, replicate 1 = 1. With knock-down of mRpL40 (mitochondrial ribosomal protein L40) [DRSC15749], the record shows z-score, replicate 1 = 0.6. For sls (sallimus) [DRSC08528], the values are z-score, replicate 1 = -0.3. Silencing of sls (sallimus) [DRSC08540] gave: z-score, replicate 1 = 0.3. Silencing of sls (sallimus) [DRSC08670] came out at: z-score, replicate 1 = -0.4.

Copied from the list:
Under “z-score, replicate 1”, PIG-L (Phosphatidylinositol glycan anchor biosynthesis class L) [DRSC15577] is entered as 1
For “z-score, replicate 1”, CG9135 [DRSC03144] shows -0.1
Result for CG8008 [DRSC07053] in “z-score, replicate 1”: -0.4
Entry of CG17239 [DRSC00492] in “z-score, replicate 1”: -0.1
boil (boilerman) [DRSC17872], z-score, replicate 1: -0.3
